# Data: patent US20170189504A1, “NOVEL PEPTIDES AND COMBINATION OF PEPTIDES FOR USE IN IMMUNOTHERAPY AGAINST VARIOUS CANCERS” (immatics biotechnologies GmbH, priority 2015, published 2017)
# For some assays here: For expression read-outs the peptide stands for its source gene, whose mRNA was measured; the gene is not named for every peptide.
# Assays:
# source genes (mRNA) [1] = assay: Expression profiling of source genes by in-house RNASeq of tumor and normal tissues (Table 18, FIG. 2); design: species or system human; key: very highly over-expressed in tumors compared to a panel of normal tissues (+++); highly over-expressed in tumors compared to a panel of normal tissues (++); over-expressed in tumors compared to a panel of normal tissues (+); conditions: source gene of peptide; for Expression score OSCAR: esophageal cancer incl. gastric-esophageal junction (N = 11) vs panel of normal tissues; for Expression score GB: glioblastoma (N = 24) vs panel of normal tissues; for Expression score NSCLC: non-small cell lung cancer (N = 11) vs panel of normal tissues; for Expression score OC: ovarian cancer (N = 12) vs panel of normal tissues; for Expression score SCLC: small cell lung cancer (N = 10) vs panel of normal tissues
# source genes (mRNA) [2] = assay: Gene and exon expression of source genes, TCGA tumor samples compared with normal tissue samples (Lonsdale, 2013) (Table 17); design: species or system human; conditions: for Over-expression category of source gene (target coverage), BLCA: BLCA = Bladder urothelial carcinoma (N = 408); for Over-expression category of source gene (target coverage), BRCA: BRCA = Breast cancer (N = 1104), tumors more than 2-fold above highest 75% percentile of normal tissues; for Over-expression category of source gene (target coverage), CHOL: CHOL = Cholangiocarcinoma (N = 36); for Over-expression category of source gene (target coverage), COAD: COAD = Colon and rectal adenocarcinoma (N = 462); for Over-expression category of source gene (target coverage), DLBC: DLBC = Lymphoid neoplasm diffuse large B-cell lymphoma (N = 48); for Over-expression category of source gene (target coverage), ESCA: ESCA = Esophageal cancer (N = 185); for Over-expression category of source gene (target coverage), KIRC: KIRC = Clear cell kidney carcinoma (N = 534); for Over-expression category of source gene (target coverage), KIRP: KIRP = Papillary kidney carcinoma (N = 291); for Over-expression category of source gene (target coverage), LAML: LAML = Acute Myeloid Leukemia (N = 173); for Over-expression category of source gene (target coverage), LGG: LGG = Lower grade glioma (N = 534); for Over-expression category of source gene (target coverage), LUAD: LUAD = Lung adenocarcinoma (N = 517); for Over-expression category of source gene (target coverage), LUSC: LUSC = Lung squamous cell carcinoma (N = 503); for Over-expression category of source gene (target coverage), OV: OV = Ovarian serous cystadenocarcinoma (N = 309); for Over-expression category of source gene (target coverage), READ: READ = Colon and rectal adenocarcinoma (N = 167); for Over-expression category of source gene (target coverage), SKCM: SKCM = Skin cutaneous melanoma (N = 473); for Over-expression category of source gene (target coverage), STAD: STAD = Stomach adenocarcinoma (N = 415); for Over-expression category of source gene (target coverage), UCEC: UCEC = Uterine corpus endometrial carcinoma (N = 546); for Over-expression category of source gene (target coverage), PAAD: PAAD = Pancreatic ductal adenocarcinoma (N = 179); for Over-expression category of source gene (target coverage), PRAD: PRAD = Prostate adenocarcinoma (N = 498)
# HLA-A*24 = assay: Identification and relative LC-MS quantitation of HLA-A*24-presented tumor-associated peptides on tissue samples (presentation profiles, Tables 14A, 14B, 16, FIG. 1); design: species or system human; key to Presentation score GC / Presentation score NSCLC / Presentation score PCA / Presentation score GB / Presentation score HCC / Presentation score RCC: specifically presented on tumors (++++); very highly over-presented on tumors compared to a panel of normal tissues (+++); highly over-presented on tumors compared to a panel of normal tissues (++); over-presented on tumors compared to a panel of normal tissues (+); conditions: for Presentation score NSCLC: non-small cell lung cancer (N = 91) vs panel of normal tissues (N = 70); for Peptide Presentation on cancer entities: Table 14A, HLA-A*24-binding tumor-associated peptides, cancer entities on which the peptide was found presented; for Presentation score GC: gastric cancer (N = 44) vs panel of normal tissues (N = 70)
Substance,Expression score OSCAR (source genes (mRNA) [1]),Expression score GB (source genes (mRNA) [1]),Expression score NSCLC (source genes (mRNA) [1]),Expression score OC (source genes (mRNA) [1]),Expression score SCLC (source genes (mRNA) [1]),"Over-expression category of source gene (target coverage), BLCA (source genes (mRNA) [2]; same cutoff)","Over-expression category of source gene (target coverage), BRCA (source genes (mRNA) [2])","Over-expression category of source gene (target coverage), CHOL (source genes (mRNA) [2]; same cutoff)","Over-expression category of source gene (target coverage), COAD (source genes (mRNA) [2]; same cutoff)","Over-expression category of source gene (target coverage), DLBC (source genes (mRNA) [2]; same cutoff)","Over-expression category of source gene (target coverage), ESCA (source genes (mRNA) [2]; same cutoff)","Over-expression category of source gene (target coverage), KIRC (source genes (mRNA) [2]; same cutoff)","Over-expression category of source gene (target coverage), LUAD (source genes (mRNA) [2]; same cutoff)","Over-expression category of source gene (target coverage), LUSC (source genes (mRNA) [2]; same cutoff)","Over-expression category of source gene (target coverage), OV (source genes (mRNA) [2]; same cutoff)","Over-expression category of source gene (target coverage), READ (source genes (mRNA) [2]; same cutoff)","Over-expression category of source gene (target coverage), SKCM (source genes (mRNA) [2]; same cutoff)","Over-expression category of source gene (target coverage), STAD (source genes (mRNA) [2]; same cutoff)","Over-expression category of source gene (target coverage), UCEC (source genes (mRNA) [2]; same cutoff)",Peptide Presentation on cancer entities (HLA-A*24),further results
192: peptide found in TYMS (gene looked up) (SYALLTYMI; listed as Homo sapiens) [compound 192],+,+,+,+,+++,"B (>= 20% of tumors above the cutoff, but <50%)","B (>= 20% of tumors above the cutoff, but <50%)","C (>=5% of tumors above the cutoff, but <20%)","B (>= 20% of tumors above the cutoff, but <50%)",A (>=50% of tumors above the cutoff),"B (>= 20% of tumors above the cutoff, but <50%)","B (>= 20% of tumors above the cutoff, but <50%)","C (>=5% of tumors above the cutoff, but <20%)","B (>= 20% of tumors above the cutoff, but <50%)","B (>= 20% of tumors above the cutoff, but <50%)","B (>= 20% of tumors above the cutoff, but <50%)",A (>=50% of tumors above the cutoff),"B (>= 20% of tumors above the cutoff, but <50%)",A (>=50% of tumors above the cutoff),NSCLC,"Expression score AML (source genes (mRNA) [1]; acute myeloid leukemia (N = 11) vs panel of normal tissues): +; Expression score NHL (source genes (mRNA) [1]; non-Hodgkin lymphoma (N = 10) vs panel of normal tissues): ++; Expression score UBC (source genes (mRNA) [1]; urinary bladder cancer (N = 10) vs panel of normal tissues): +; Over-expression category of source gene (target coverage), GBM (source genes (mRNA) [2]; GBM = Glioblastoma multiforme (N = 169), same cutoff): A (>=50% of tumors above the cutoff); Over-expression category of source gene (target coverage), KIRP (source genes (mRNA) [2]; same cutoff): B (>= 20% of tumors above the cutoff, but <50%); Over-expression category of source gene (target coverage), LAML (source genes (mRNA) [2]; same cutoff): A (>=50% of tumors above the cutoff); Over-expression category of source gene (target coverage), LGG (source genes (mRNA) [2]; same cutoff): C (>=5% of tumors above the cutoff, but <20%); Over-expression category of source gene (target coverage), LIHC (source genes (mRNA) [2]; LIHC = Liver hepatocellular carcinoma (N = 374), same cutoff): C (>=5% of tumors above the cutoff, but <20%); Presentation score NSCLC (HLA-A*24; HLA-A*24 peptides): ++++"
199: peptide found in NANS (gene looked up) (RYAEEVGIF; listed as Homo sapiens) [compound 199],,,,,,"B (>= 20% of tumors above the cutoff, but <50%)",A (>=50% of tumors above the cutoff),"C (>=5% of tumors above the cutoff, but <20%)",A (>=50% of tumors above the cutoff),A (>=50% of tumors above the cutoff),"C (>=5% of tumors above the cutoff, but <20%)",,"C (>=5% of tumors above the cutoff, but <20%)","C (>=5% of tumors above the cutoff, but <20%)","C (>=5% of tumors above the cutoff, but <20%)",A (>=50% of tumors above the cutoff),"B (>= 20% of tumors above the cutoff, but <50%)","B (>= 20% of tumors above the cutoff, but <50%)","B (>= 20% of tumors above the cutoff, but <50%)","GC, NSCLC, HCC, PCA","Expression score PCA (source genes (mRNA) [1]; prostate cancer and benign prostate hyperplasia (N = 5) vs panel of normal tissues): +; Over-expression category of source gene (target coverage), PAAD (source genes (mRNA) [2]; same cutoff): B (>= 20% of tumors above the cutoff, but <50%); Over-expression category of source gene (target coverage), PRAD (source genes (mRNA) [2]; same cutoff): A (>=50% of tumors above the cutoff); Presentation score GC (HLA-A*24; HLA-A*24 peptides): +; Presentation score PCA (HLA-A*24; HLA-A*24 peptides, prostate cancer (N = 40) vs panel of normal tissues (N = 70)): ++"
200: peptide found in HUWE1 (gene looked up) (YYGPSLFLL; listed as Homo sapiens) [compound 200],+,+,+,+,+,,"B (>= 20% of tumors above the cutoff, but <50%)",,"C (>=5% of tumors above the cutoff, but <20%)",,A (>=50% of tumors above the cutoff),"B (>= 20% of tumors above the cutoff, but <50%)","C (>=5% of tumors above the cutoff, but <20%)","C (>=5% of tumors above the cutoff, but <20%)","B (>= 20% of tumors above the cutoff, but <50%)","C (>=5% of tumors above the cutoff, but <20%)","B (>= 20% of tumors above the cutoff, but <50%)",A (>=50% of tumors above the cutoff),"C (>=5% of tumors above the cutoff, but <20%)","GC, NSCLC, RCC","Expression score BRCA (source genes (mRNA) [1]; BRCA tumors vs panel of normal tissues): +; Over-expression category of source gene (target coverage), KICH (source genes (mRNA) [2]; KICH = Kidney chromophobe (N = 66), same cutoff): C (>=5% of tumors above the cutoff, but <20%); Over-expression category of source gene (target coverage), KIRP (source genes (mRNA) [2]; same cutoff): C (>=5% of tumors above the cutoff, but <20%); Over-expression category of source gene (target coverage), LAML (source genes (mRNA) [2]; same cutoff): A (>=50% of tumors above the cutoff); Over-expression category of source gene (target coverage), LGG (source genes (mRNA) [2]; same cutoff): B (>= 20% of tumors above the cutoff, but <50%); Over-expression category of source gene (target coverage), PAAD (source genes (mRNA) [2]; same cutoff): C (>=5% of tumors above the cutoff, but <20%); Over-expression category of source gene (target coverage), PRAD (source genes (mRNA) [2]; same cutoff): C (>=5% of tumors above the cutoff, but <20%); Presentation score GC (HLA-A*24; HLA-A*24 peptides): +; Presentation score NSCLC (HLA-A*24; HLA-A*24 peptides): +"
